About 220 (0.063%) of roughly 350,000 compounds were called active. The shares of active, inactive and inconclusive entries below differ from those in the screen. Calls come from the whole dose curve; as a rule, active = well fitted activation curve with a large enough effect; inconclusive = small, poorly fitted or top-dose-only effect; inactive = no such curve, though single readings can be large or run the other way. Potencies beside an inconclusive call are fits to weak or partial responses and may not hold up.
assay: qHTS for Activators of Integrin-Mediated Alleviation for Muscular Dystrophy; details: alpha7betagal myoblasts, beta-gal FDG fluorescence, 48 h; activation: at 38.3 µM (top of the series); note: nearly all actives have a fitted effect of over 60% in size;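 for activation: 100% = response of the positive control SU9516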
In short: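 Alpha7betagal+/- myoblasts (passage 13) were plated 16-24 hr, then exposed to compounds (1:260 dilution of DMSO stock) for 48 hours at 37C. After MPER lysis, β-galactosidase reporter activity was read as FDG fluorescence (ex 480/em 540) after 30 minutes.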
Potency is the fitted concentration of half-maximal effect.

Question: For `Cc1ccc(NC(=O)C2CCN(S(=O)(=O)c3ccc4c(c3)NC(=O)C(C)S4)CC2)c(C)c1` (stereo unspecified), which Potency is on record?
Answer: inconclusive: 28.2 µM [activator, single point]

Question: Which Potency does the source give for `Cc1ccc(-n2nc3ccc(N)cc3n2)cc1Cl` here?
Answer: inconclusive: 2.82 µM [activator, single point]

Question: Which Potency does the source give for `CC(NC(=O)CSc1nc2ccccc2n1C)c1ccccc1` (stereo unspecified) here?
Answer: inconclusive: 28.2 µM [activator, single point]

Question: With `CCCCCc1ccc(OCCCC[n+]2cccc(C)c2)c(CCCCC)c1` as the compound, how does the activation read?
Answer: inconclusive: -70.9% [activator]

Question: For `COc1ccc(-c2nnn(CC(=O)N(Cc3ccc(F)cc3)C(C(=O)NC3CCCC3)c3ccc(F)cc3)n2)cc1` (stereo unspecified), which “activation” value is on record?
Answer: inactive: 28.7%

Question: Which Potency does the source give for `Cc1cccc(C)c1NC(=O)CN(C)C(=O)C1CC1C` (stereo unspecified) here?
Answer: inconclusive: 28.2 µM [activator, single point]

Question: With `Nc1ccc(N2CCN(c3ccc(Cl)c(Cl)c3)CC2)cc1` as the compound, how does the “activation” value read?
Answer: inactive: -22.5%

Question: For `CCc1cccc(C)c1NC(=O)CN(C)Cc1cccc(F)c1`, which Potency is on record?
Answer: inconclusive: 2.82 µM [activator, single point]

Question: For `COc1ccc(N(CC(=O)Nc2ccccc2C)S(=O)(=O)c2c(C)[nH]c(=O)[nH]c2=O)cc1`, which Potency is on record?
Answer: inconclusive: 28.2 µM [activator, single point]

Question: Which Potency does the source give for `CCOC(=O)C1C(c2cccs2)NC(=O)NC1(O)C(F)(F)F` (stereo unspecified) here?
Answer: inconclusive: 28.2 µM [activator, single point]

Question: With `Cc1cc(C)n2[nH]c(=O)c(N=Nc3cccc(C(F)(F)F)c3)c2n1` as the compound, how does the “activation” value read?
Answer: inactive: -5.37%

Question: Which Potency does the source give for `COc1ccc2[nH]cc(CCNC(=S)NCCc3ccccc3)c2c1` here?
Answer: inconclusive: 5.01 µM [activator, single point]

Question: Which Potency does the source give for `CS(=O)(=NS(=O)(=O)c1ccc(Cl)cc1)c1ccccc1` (stereo unspecified) here?
Answer: inconclusive: 28.2 µM [activator, single point]

Question: For `Cc1cc(-c2ccc(S(=O)(=O)N3CCN(c4ccc(F)cc4)CC3)s2)on1`, which Potency is on record?
Answer: inconclusive: 6.31 µM [activator, partial curve]

Question: Which Potency does the source give for `CN(Cc1ccccc1)c1ncnc(N)c1[N+](=O)[O-]` here?
Answer: inconclusive: 17.8 µM [activator, single point]

Question: With `Cc1ccccc1-c1nnc(-c2cccc3ccccc23)o1` as the compound, how does the Potency read?
Answer: inconclusive: 5.01 µM [activator, single point]

Question: Which Potency does the source give for `CCOc1cc2c(cc1/C=C/c1noc(C)c1[N+](=O)[O-])OC(C)C2` (stereo unspecified) here?
Answer: inconclusive: 3.55 µM [activator, partial curve, poor fit]

Question: With `O=C(Nc1ccc2ccccc2c1)c1cccc([N+](=O)[O-])c1` as the compound, how does the Potency read?
Answer: inconclusive: 5.01 µM [activator, single point]

Question: With `COc1ccc(OC)c(NC(=O)c2ccc(Cl)cc2)c1` as the compound, how does the “activation” value read?
Answer: inactive: 0.803%

Question: Which Potency does the source give for `COc1cnn(-c2ccc(C)cc2)c(=O)c1SCc1ccccc1` here?
Answer: inconclusive: 10 µM [activator, partial curve, poor fit]

Question: For `O=C(CCN1C(=O)c2ccccc2C1=O)C1=NN[C@@H]2C(=O)N(c3ccc4c(c3)OCCO4)C(=O)[C@H]12`, which Potency is on record?
Answer: inconclusive: 28.2 µM [activator, single point]

Question: With `C/C(=N\NC(=O)c1cccs1)c1ccc2c(c1)OCO2` as the compound, how does the “activation” value read?
Answer: inactive: 4.83%

Question: Which “activation” value does the source give for `O=C(O)c1cc(-c2ccc(N3CCOCC3)cc2)nn1-c1ccc(F)cc1F` here?
Answer: inactive: 8.41%

Question: For `O=C(CN1CCOCC1)Nc1ccc([N+](=O)[O-])cc1`, which Potency is on record?
Answer: inconclusive: 28.2 µM [activator, single point]

Question: With `CCCCC(O)(c1ccc(F)cc1)C(CN1CCOCC1)c1ccc(Cl)cc1` (stereo unspecified) as the compound, how does the Potency read?
Answer: inconclusive: 5.01 µM [activator, single point]

Question: For `CCOc1ccc2nc(Cl)sc2c1`, which Potency is on record?
Answer: inconclusive: 14.1 µM [activator, partial curve, poor fit]

Question: For `CNC(=O)CSc1nc2ccccc2c(=O)n1C1CCCCC1`, which Potency is on record?
Answer: inconclusive: 3.16 µM [activator, partial curve, poor fit]

Question: With `COC(=O)c1ccc(OCC(=O)Nc2ccccc2C(=O)NC2CC2)cc1` as the compound, how does the Potency read?
Answer: inconclusive: 5.01 µM [activator, single point]

Question: Which “activation” value does the source give for `O=[N+]([O-])c1ccc(Nc2nc(N/N=C/c3cccc(F)c3)nc(N3CCCC3)n2)cc1` here?
Answer: inactive: 27.8%

Question: Which activation does the source give for `COc1ccc(CN2CCC(C(=O)Nc3ccc(Oc4cccnc4)cc3)CC2)c(C)c1C` here?
Answer: inconclusive: -13.2% [activator]

Question: Which Potency does the source give for `Fc1ccc(Cn2cc(C(=S)N3CCOCC3)c3ccccc32)cc1` here?
Answer: inconclusive: 2.82 µM [activator, single point]

Question: With `CCOC(=O)c1c(NC(=O)CSc2cccc[n+]2[O-])sc(C(=O)Nc2ccccc2)c1C` as the compound, how does the Potency read?
Answer: inconclusive: 2.82 µM [activator, single point]

Question: For `Cc1cc(C)nc(NS(=O)(=O)c2ccc(N3Cc4ccccc4C3=O)cc2)n1`, which Potency is on record?
Answer: inconclusive: 5.01 µM [activator, single point]

Question: With `O=C(O)c1cc(-c2ccc(/C=C3\NC(=O)N(c4ccccc4)C3=O)o2)ccc1Cl` as the compound, how does the “activation” value read?
Answer: inactive: 6.25%

Question: For `CC(=O)N1CCc2[nH]c3ccccc3c2C1`, which Potency is on record?
Answer: inconclusive: 28.2 µM [activator, partial curve, poor fit]

Question: With `CCOC(=O)c1cc2c(C)n(-c3ccc(C)cc3)c(C)c2ccc1=O` as the compound, how does the “activation” value read?
Answer: inactive: -65.6%

Question: For `O=C(Cn1ncc2c([nH]c3ccccc32)c1=O)NCC1CCN(Cc2ccccc2F)CC1`, which Potency is on record?
Answer: inconclusive: 2.51 µM [activator, partial curve, poor fit]

Question: Which Potency does the source give for `Cc1cc(NC(=O)c2cc(C)on2)n(-c2ccccc2)n1` here?
Answer: inconclusive: 14.1 µM [activator, single point]

Question: For `COC(=O)Cc1csc(NC(=O)c2ccc3ncsc3c2)n1`, which “activation” value is on record?
Answer: inactive: -0.742%

Question: Which Potency does the source give for `CCC(C(=O)NCc1ccco1)N(C(=O)CNS(=O)(=O)c1ccccc1)c1ccc(F)cc1` (stereo unspecified) here?
Answer: inconclusive: 20 µM [activator, single point]

Question: Which “activation” value does the source give for `COc1ccc(C(=O)Nc2nc3cc4c(cc3s2)OCCO4)c(OC)c1` here?
Answer: inactive: 11.8%

Question: Which Potency does the source give for `CCN(CC)c1ccc(N2C(=NC(=O)C3CC3)SC3CS(=O)(=O)CC32)cc1` (stereo unspecified) here?
Answer: inconclusive: 28.2 µM [activator, single point]

Question: For `CCCn1c(=O)c(C(=O)NCC2CCCO2)c(O)c2ccccc21` (stereo unspecified), which Potency is on record?
Answer: inconclusive: 12.6 µM [activator, single point]

Question: Which activation does the source give for `COc1ccc(OCc2cc(C(=O)NCc3cccc(C)n3)no2)c(Cl)c1` here?
Answer: inconclusive: 3.71% [activator]

Question: With `COc1ccc(CNC(=O)CSc2nc3ccc(C)cc3[nH]2)cc1` as the compound, how does the Potency read?
Answer: inconclusive: 5.62 µM [activator, single point]

Question: For `CCCCN=C(C)C1=C(O)CSC1=O`, which Potency is on record?
Answer: inconclusive: 12.6 µM [activator, partial curve, poor fit]

Question: For `CC(C)C(C)NC(=O)CSc1ccc(S(=O)(=O)N2CCOCC2)cn1` (stereo unspecified), which Potency is on record?
Answer: inconclusive: 10 µM [activator, partial curve, poor fit]

Question: For `CCSc1ccccc1C(=O)N1CCN(c2ccc([N+](=O)[O-])cc2)CC1`, which Potency is on record?
Answer: inconclusive: 5.01 µM [activator, single point]

Question: With `Cc1ccccc1NC(=O)Cn1nnc(S(=O)(=O)c2ccc(C(C)(C)C)cc2)c1N` as the compound, how does the Potency read?
Answer: inconclusive: 28.2 µM [activator, single point]

Question: For `CCOC(=O)C1=C(CP(=O)(c2ccccc2)c2ccccc2)NC(=O)NC1c1ccc(Cl)cc1` (stereo unspecified), which Potency is on record?
Answer: inconclusive: 11.2 µM [activator, partial curve, poor fit]

Question: For `CC(NC=C1C(=O)OC(C)(C)OC1=O)C(=O)O` (stereo unspecified), which Potency is on record?
Answer: inconclusive: 28.2 µM [activator, single point]

Question: Which Potency does the source give for `O=C(O)CC/C(=N\NC(=O)CNC(=O)/C=C/c1ccccc1)c1ccccc1` here?
Answer: inconclusive: 10 µM [activator, single point]

Question: With `CC(=O)Nc1ccc(Nc2ccc3c4c(cc(=O)n3C)-c3ccccc3C(=O)c24)cc1` as the compound, how does the Potency read?
Answer: inconclusive: 1.78 µM [activator, partial curve, poor fit]

Question: For `O=C(CCn1c(=O)c2sccc2n(CC(=O)OCc2ccccc2)c1=O)NCc1ccco1`, which Potency is on record?
Answer: inconclusive: 3.16 µM [activator, single point]

Question: For `COCCNC(=S)NNC(=O)c1cc(C2CC2)nc2ccccc12`, which Potency is on record?
Answer: inconclusive: 2.82 µM [activator, single point]

Question: For `Cc1cccnc1NC(=O)Nc1cccc2ccccc12`, which “activation” value is on record?
Answer: inactive: 11.5%

Question: With `Cc1ccc(NC(=O)c2ccco2)c(NC(=O)c2ccccc2C)c1` as the compound, how does the Potency read?
Answer: inconclusive: 28.2 µM [activator, single point]

Question: Which “activation” value does the source give for `COc1cc(C2C(C#N)=C(N)OC3=C2C(=O)CC(C)(C)C3)cc2c1OCO2` (stereo unspecified) here?
Answer: inactive: -11.6%

Question: For `O=C(NNC(=O)C1CC1)c1cc(Cl)nc2ccccc12`, which Potency is on record?
Answer: inconclusive: 3.16 µM [activator, partial curve, poor fit]

Question: With `COC(=O)c1cc(Br)ccc1NC(=O)Nc1ccccc1` as the compound, how does the “activation” value read?
Answer: inactive: 33.7%

Question: With `Cc1occc1C(=O)Nc1cc(S(=O)(=O)N2CCOCC2)ccc1OC(C)C` as the compound, how does the Potency read?
Answer: inconclusive: 5.01 µM [activator, single point]

Question: With `COc1ccc(CNC(=O)C2(C)Cc3ccccc3C(=O)O2)cc1` (stereo unspecified) as the compound, how does the Potency read?
Answer: inconclusive: 10 µM [activator, single point]

Question: For `CCN1C(=NCc2ccc(OC)cc2)N[C@@H](c2ccccc2)C(C(=O)OC)=C1C`, which “activation” value is on record?
Answer: inactive: -5.15%

Question: With `NC(=O)Cn1nc(C(F)(F)F)c2c1CCCC2` as the compound, how does the Potency read?
Answer: inconclusive: 28.2 µM [activator, single point]

Question: With `O=S(=O)(c1ccccc1F)N1CCN(CC(O)c2ccccc2)CC1` (stereo unspecified) as the compound, how does the Potency read?
Answer: inconclusive: 12.6 µM [activator, single point]

Question: With `Cc1nc(CNS(=O)(=O)c2cc([N+](=O)[O-])ccc2C)cs1` as the compound, how does the Potency read?
Answer: inconclusive: 5.01 µM [activator, single point]
